PubChem BioAssay AID1508597, Cure First – 2020
This is a random part of the about 2,100 reagents, under one of the conditions tested. 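Calls flag viability under 80% in either arm, not effects specific to rucaparib; the reference for percent is not stated.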 Unmarked entries are inactive. Some reagents were tested in more than one well and are listed for each. Not given: the 100% reference.

Aim: 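Knock-downs altering ovarian cancer cell survival with or without PARP inhibitor rucaparib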 (primary screen)
Cells: human ovarian carcinoma lines grown from tumours: OCI-P5x (papillary serous) and OCI-C5x (clear cell)
Reagents: siRNA pool against human genes, 1.25 pmol siRNA per well
Timing: 72 h or 96 h, depending on the cell culture
Conditions: rucaparib 20 µM (about IC30) or vehicle, present until read-out
Rucaparib or vehicle: Rucaparib
Cell line: OCI-C5x (clear cell)
Measured: 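Luminescent ATP-based viability assay read 72 or 96 h after transfection, depending on culture, given as normalised percent viability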
Reading the numbers: viability, normalised: higher = more viable cells remaining
Call rule: 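a well counts as a hit if its normalised viability is under 80 percent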
Meaning of the calls: active = viability under 80%; inactive = viability 80% or more

The opening 3 records, to show the layout:
target gene | technical replicate | viability, normalised (%)
MYO3B (GeneID 140469) | 1 | 48.2 (active)
MYO3B (GeneID 140469) | 1 | 61.6 (active)
MYO3B (GeneID 140469) | 2 | 69 (active)

Main list, repeating the preview:
target gene | technical replicate | viability, normalised (%)
MYO3B (GeneID 140469) | 1 | 48.2 (active)
MYO3B (GeneID 140469) | 1 | 61.6 (active)
MYO3B (GeneID 140469) | 2 | 69 (active)
MYO3B (GeneID 140469) | 2 | 51.4 (active)
MYO3B (GeneID 140469) | 3 | 54.9 (active)
MYO3B (GeneID 140469) | 3 | 74.6 (active)
CHMP2A (GeneID 27243) | 1 | 39.6 (active)
CHMP2A (GeneID 27243) | 2 | 34.5 (active)
CHMP2A (GeneID 27243) | 3 | 32.5 (active)
EPHA4 (GeneID 2043) | 1 | 52.1 (active)
EPHA4 (GeneID 2043) | 2 | 52.6 (active)
EPHA4 (GeneID 2043) | 3 | 54.8 (active)
GLI1 (GeneID 2735) | 1 | 70.9 (active)
GLI1 (GeneID 2735) | 2 | 56.3 (active)
GLI1 (GeneID 2735) | 3 | 61.1 (active)
ING4 (GeneID 51147) | 1 | 45.5 (active)
ING4 (GeneID 51147) | 2 | 51 (active)
ING4 (GeneID 51147) | 3 | 40.2 (active)
PLCB3 (GeneID 5331) | 1 | 45.7 (active)
PLCB3 (GeneID 5331) | 2 | 31.6 (active)
PLCB3 (GeneID 5331) | 3 | 33.6 (active)
STK25 (GeneID 10494) | 1 | 35.1 (active)
STK25 (GeneID 10494) | 2 | 49.6 (active)
STK25 (GeneID 10494) | 3 | 68.3 (active)
